Source: PubChem BioAssay AID2551 (National Center for Advancing Translational Sciences (NCATS), 2010)
In all, about 310,000 compounds went through this assay and about 17,000 (5.5%) were called active. Inconclusive results, whose numbers are uncertain, are shown with a selection of clear calls. Calls follow the shape of the dose curve; as a rule, active = well fitted inhibition curve with a large enough effect; inconclusive = small, poorly fitted or top-dose-only effect, or effect the other way; inactive = no such curve, though single readings can be large or run the other way. A potency beside an inconclusive call is a rough fit, not a confirmed value.

By UniProt entry, the sequences of proteins in these tests, tags left out. Where a name states a change or a piece, a line headed by the entry shows the natural chain unless it says otherwise.
UniProt P51450: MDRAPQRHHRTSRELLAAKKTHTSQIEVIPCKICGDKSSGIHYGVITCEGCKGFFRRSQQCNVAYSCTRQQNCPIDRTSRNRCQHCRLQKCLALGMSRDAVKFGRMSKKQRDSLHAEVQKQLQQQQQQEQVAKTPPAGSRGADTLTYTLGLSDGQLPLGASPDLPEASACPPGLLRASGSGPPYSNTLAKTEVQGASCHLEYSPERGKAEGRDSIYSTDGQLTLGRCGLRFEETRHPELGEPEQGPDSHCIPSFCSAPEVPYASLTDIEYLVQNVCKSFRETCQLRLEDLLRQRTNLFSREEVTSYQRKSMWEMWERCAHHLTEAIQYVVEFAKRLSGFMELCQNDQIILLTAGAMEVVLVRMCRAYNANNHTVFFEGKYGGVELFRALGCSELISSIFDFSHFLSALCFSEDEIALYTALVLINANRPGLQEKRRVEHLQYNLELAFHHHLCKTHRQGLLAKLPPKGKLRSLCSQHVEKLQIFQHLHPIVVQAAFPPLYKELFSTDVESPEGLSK

target: Nuclear receptor ROR-gamma (Mus musculus) (UniProt P51450); assay: qHTS for inhibitors of ROR gamma transcriptional activity; conditions: Drosophila S2 Gal4-RORgamma UAS-luciferase reporter, 20 h; activity change, negative = inhibition: at 53.6 µM (top of the series); also: nearly all actives have a fitted effect of over 60% in size
In short: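 Luciferase reporter read in Schneider cells carrying Gal4-RORγ (mouse) and UAS-Photinus luciferase; cells given compound 1 h before 700 uM copper sulfate induction, then incubated 20 h at ambient temperature.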
% is scaled to controls: 0 for no effect and ±100 for the full control effect; potency is read from the fitted curve at half-maximal effect.

Activity change, negative = inhibition, inactive:
CCN(CC(=O)NCCCN1CCOCC1)S(=O)(=O)c1cc(Cl)ccc1Cl -8.84%
COc1cc2c(cc1OC)C(c1ccccc1C)CC(=O)N2 (configuration not stated) -24.5%
COC(=O)c1ccc(OC(=O)/C=C/c2ccco2)cc1 23.3%
Cc1ccn2c(=O)c(C(=O)NCCCN3CCCCC3C)c(O)nc2c1 (configuration not stated) 5.11%
Cc1cc(C)nc(SCc2ccc(C(=O)NN=C3CCCC3)cc2)n1 -37.9%
CN(Cc1cn(C)nc1-c1cccc(Cl)c1)CC1CCCCO1 (configuration not stated) -10.3%
CCNc1nc(SCC(=O)Nc2ccc(Cl)c(Cl)c2)nc(N(C)C)n1 -25.6%
O=S(=O)(NNC(=S)Nc1ccc(S(=O)(=O)Nc2ncccn2)cc1)c1ccc(Br)cc1 -9.56%
O=C(Nc1ccc(N2CCN(C(=O)c3cccs3)CC2)cc1)c1ccccc1F -16.6%
Cc1ccccc1OCC(O)CN1CCN(CC(O)COc2ccccc2C)CC1 (configuration not stated) -0.492%
CCOC(=O)/C=C/C(=O)Nc1ccc(S(=O)(=O)Nc2nccs2)cc1 4.15%
Cc1ccc(CSc2nnc(-c3ccc4c(c3)OCO4)o2)cc1 37.4%
C=CCN1C=CC=C/C1=C1\SC(=S)N(C)C1=O -25.6%
CC(C)(C)C(=O)N=C1SC2CS(=O)(=O)CC2N1c1ccc2c(c1)OCO2 (configuration not stated) -6.12%

Potency, active:
COCCn1c(C)cc(C(=O)CSc2nnc3ccccn23)c1C 3.16 µM
COc1ccc(O)c(/C=N/NC(=O)c2cccc(N3CCCC3=O)c2)c1 3.55 µM
COc1ccc(C)cc1Nc1n[n+](-c2ccccc2)c(-c2c(Cl)cccc2Cl)s1 7.08 µM
CCc1cc2c(=O)n(Cc3ccco3)c(SCC(=O)N(C)C3CCS(=O)(=O)C3)nc2s1 (configuration not stated) 10 µM
O=[N+]([O-])c1ccccc1NC(=S)N/N=C/c1ccc(O)c(O)c1 10 µM
O=c1cc(CSc2nc(NCc3ccccc3)c3ccccc3n2)nc2ccc(Cl)cn12 4.47 µM
Cc1c(/C=N/NC(=O)c2sc3ccccc3c2Cl)cnn1C 2 µM

Potency, inconclusive:
CCOC(=O)N1CCC(NC(=O)C2CCCN(C(=O)c3cc4sccc4n3C)C2)CC1 (configuration not stated) 11.2 µM [activator, partial curve, poor fit]
COc1ccc(/C=N/NC(=O)c2ccc(NC(=O)C3CCCCC3)cc2)cc1O 14.1 µM [inhibitor, single point]
CCS(=O)(=O)n1nc(-c2ccco2)nc1SC 22.4 µM [inhibitor, single point]
O=C(Nc1nc(-c2ccccc2)cs1)C1CCCCN1S(=O)(=O)c1ccccc1 (configuration not stated) 2.82 µM [inhibitor, partial curve, poor fit]
CC(C)[C@H](N)c1nnc(SCc2ccc(Cl)cc2)o1 12.6 µM [activator, single point]
C/C(CC(=O)Nc1cc(C)ccn1)=N\NC(=O)c1ccc(C)cc1 11.2 µM [inhibitor, single point]
Cc1ccc(NC(=O)c2c(C)nc(Nc3nc4ccccc4o3)nc2C)cc1 3.98 µM [inhibitor, partial curve]
Cc1nn(-c2ccccc2)c(C)c1NC(=O)COc1ccc(Br)cc1Cl 14.1 µM [activator, partial curve]
CCCCOc1ccc(C(=O)N2CCCC2)cc1 3.98 µM [activator, single point]
O=C(Nc1ccc(Oc2ccccc2)cc1)c1ccco1 15.8 µM [activator, partial curve, poor fit]
O=C(Nc1ccc2c(c1)OCO2)c1cccc2c1C(=O)N(Cc1cccnc1)C2 2.82 µM [inhibitor, single point]
CC1(CCc2ccccc2)NC(=S)N(c2ccccc2)N1 (configuration not stated) 22.4 µM [inhibitor, single point]
Cc1nnc2n1N=CC=C(c1ccccc1)S2 15.8 µM [inhibitor, single point]
COc1ccc(OCc2cc(C(=O)N3C[C@@H](C)O[C@@H](C)C3)no2)c(Cl)c1 11.2 µM [activator, partial curve]
S=C(Nc1ccccc1)N(CCN1CCOCC1)Cc1cccc(Cl)c1 11.2 µM [inhibitor, partial curve, poor fit]
NC(=O)COc1ccccc1/C=C1/SC(=O)N(CC(=O)N2CCc3ccccc3C2)C1=O 11.2 µM [activator, single point]
CC(=O)c1cccc(OCc2cc(C(=O)N(C)C(C)c3ccccn3)no2)c1 (configuration not stated) 35.5 µM [activator, single point]
CC(C)(C)Nc1cccccc1=O 15.8 µM [inhibitor, single point]
COCCCNC(=S)Nc1ccc(C)cc1 8.91 µM [inhibitor, partial curve, poor fit]
O=C(NCC1CCN(c2ccc(S(=O)(=O)N3CCOCC3)cc2)CC1)c1cccc(Cl)c1 35.5 µM [activator, single point]
COc1ccc(/C=C(/NC(=O)c2ccccc2)C(=O)N/N=C/c2cccs2)cc1OC 17.8 µM [inhibitor, single point]
Cc1ccc(C(=O)NCCc2nnc3ccc(SCC(=O)Nc4c(C)cc(C)cc4C)nn23)cc1 12.6 µM [activator, partial curve]
Cc1cc(NC(=O)CS(=O)(=O)c2cn(Cc3ccc(F)cc3)c3ccccc23)no1 35.5 µM [activator, single point]
O=C(/C=C/c1cccs1)Nc1ccc(N2CCOCC2)c(S(=O)(=O)Nc2ccccc2Cl)c1 14.1 µM [activator, partial curve]
O=C(Nc1ccc(N2CCCCC2)c(Cl)c1)c1cccnc1 35.5 µM [activator, single point]
Cc1ccc(-c2nc3ncccc3o2)cc1NC(=O)Cc1ccc(Cl)cc1 0.316 µM [inhibitor, partial curve, poor fit]

Taken from the results shown (two entries):
Potency, inconclusive:
Cc1nnc2n1N=CC=C(c1ccccc1)S2 15.8 µM [inhibitor, single point]
COc1ccc(OCc2cc(C(=O)N3C[C@@H](C)O[C@@H](C)C3)no2)c(Cl)c1 11.2 µM [activator, partial curve]
